Screen size: about 320,000 compounds; about 2,100 (0.66%) were called active. This list was built around the results that the source calls inconclusive (neither active nor inactive); the mix of calls is not that of the screen. Calls come from the whole dose curve; as a rule, active = well fitted inhibition curve with a large enough effect in the signal ratio, with a control signal flat (not every such curve was filed as active); inconclusive = small, poorly fitted or top-dose-only effect, or effect the other way, or a change in a side signal; inactive = flat fitted curve, though single readings scatter; the % refers to the signal ratio. A potency beside an inconclusive call is a rough fit, not a confirmed value.
Test: qHTS Assay for Lipid Storage Modulators in Drosophila S3 Cells
Settings: BODIPY lipid droplet fluorescence, 18-24 h, cells fed with added oleic acid; lipid storage change, negative = inhibition: at 46.1 µM (top of the series) unless noted
Method in brief: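 Drosophila S3 cells loaded with oleic acid (400 uM, as added) and compounds at several concentrations; lipid droplets imaged by 488-nm laser-scanning cytometry, 500–530 nm intensity and object ratio to cell channel. Percent activity normalized to 20 uM Triacsin C.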
% is set by controls: 0 for no effect and ±100 for the full control effect; potency is the fitted concentration of half-maximal effect.

Structure (SMILES) | Potency | lipid storage change, negative = inhibition
CC(C)c1[nH]nc2c1C(C(C)C)C(C#N)=C(N)O2 (configuration not stated) | inconclusive: 29.1 µM [activator, single point] | 
c1ccc(CSC2=NCCCN2)cc1 | inconclusive: 0.0651 µM [falling, full curve, poor fit] | 
O=C(C1CCC(=O)N(C2CC2)C1)N(CCO)Cc1ccccc1 (configuration not stated) |  | inconclusive: 14.2%
CC1=NN(C(=O)c2ccc(C)cc2)C(O)(C(F)(F)OC(F)(F)F)C1 (configuration not stated) |  | inconclusive: 26%
FC(F)(F)c1cnc(-n2cc[nH]c2=S)c(Cl)c1 |  | inconclusive: -1.63%
CC1(C)C[C@@H]2C[C@@](C)(CN2C(=O)c2cc(COc3cccc(C(F)(F)F)c3)on2)C1 |  | inconclusive: -29.5%
COc1ccc(OCC(=O)Nc2ccccc2C(=O)NC2CC2)cc1 |  | inconclusive: -21.5%
Nc1cc(C(=O)OCC(=O)N2CCN(C(=O)COC(=O)c3ccc(Cl)c(N)c3)CC2)ccc1Cl |  | inconclusive: 7.02%
COc1ccccc1CNC(=O)CSc1nc2nc(C)cc(C)n2n1 |  | inconclusive: -1.71%
CCc1cc2c(=O)c(-c3ccc4c(c3)OCCO4)coc2c(CN2CCCCC2C)c1O (configuration not stated) | inconclusive: 25.9 µM [activator, partial curve] | 
Cc1ccc(OCCC(=O)Nc2ccc3c(c2)OCCCO3)cc1 | inconclusive: 0.58 µM [activator, single point] | 
Cc1ccc(C2=N/C(=C\c3c(C)nn(-c4ccccc4)c3N3CCCC3)C(=O)O2)cc1 | inconclusive: 2.31 µM [activator, partial curve] | 
CCOP(=O)(OCC)C(Nc1ccccc1)c1cc(OC)ccc1OC (configuration not stated) |  | inconclusive: -31.3%
CC(=O)N1CCN(Cc2nc3ccc(Cl)cc3n2CCO)CC1 |  | inconclusive: 3.69%
CCSc1nnc2nc3[nH]c4c(C)cccc4c3nn12 |  | inactive: 3.26%
Cc1onc(-c2c(Cl)cccc2Cl)c1C(=O)NC(C)(C)CO | inconclusive: 18.4 µM [falling, single point] | 
CCc1cc2c(Sc3nc4ccccc4s3)ncnc2s1 | inconclusive: 3.66 µM [activator, full curve, poor fit] | 
CNC(=S)N1CCN(c2cccc(OC)c2)CC1 |  | inconclusive: 2.65%
COc1ccc(CC2(CO)CCN(Cc3nc(C(C)C)cs3)CC2)cc1 |  | inconclusive: -15.6%
Cc1ccc(-n2c3c(c(O)c(-c4ccccc4)c2=O)C(=O)CC(C)(C)C3)cc1 |  | inconclusive: -0.147%
COc1ccc(/C(C)=N/NC(=O)c2ccc(CSc3nncn3C)cc2)cc1 |  | inconclusive: 16.7%
CC1=NNC(=O)C1CCC(=O)N/N=C/c1ccccc1 (configuration not stated) |  | inconclusive: -6.86%
COc1ccc(OCC(=O)Nc2cc(S(=O)(=O)N3CCCC3)ccc2Cl)cc1 |  | inconclusive
CSc1nc(N2CCN(c3ccccc3Cl)CC2)c2ccccc2n1 |  | inconclusive: 21.3%
COc1ccc([C@@H]2C[C@H](c3ccccc3)Oc3cc(C)cc(C)c32)cc1 | inconclusive: 29.1 µM [activator, single point] | 
CCOc1ccc(N2C(=O)CC(N3CCN(c4ccc([N+](=O)[O-])cc4)CC3)C2=O)cc1 (configuration not stated) |  | inconclusive: -29.7%

Structure (SMILES) | Potency | lipid storage change, negative = inhibition
Clc1cccc(NCc2nnc(SCc3ccc(Cl)cc3Cl)o2)c1 | inconclusive: 29.1 µM [cytotoxic, single point] | 
COc1ccccc1C(CNC(=O)CSc1ccc2ccccc2c1)N(C)C (configuration not stated) |  | inconclusive: 57%
CCCC(=O)Nc1ccc(OCC(=O)OC)cc1 | inconclusive: 18.4 µM [falling, single point] | 
c1cncc(-c2nc(Oc3ccc(-c4nnco4)cc3)c3c4c(sc3n2)CCCC4)c1 |  | inconclusive: 1.92%
O=C(c1ccc(Sc2ccccc2)c([N+](=O)[O-])c1)N1CCOCC1 |  | inconclusive: 12.1%
COc1cccc(COCCN2CCN(S(=O)(=O)c3ccc(C)cc3)CCC2=O)c1 |  | inconclusive: 9.13%
COc1ccc(NC(=O)CN2CCCCCC2)cc1OC |  | inconclusive: 56.7%
CCOC(=O)c1c(NC(=O)CSc2nnnn2C)sc(C(=O)N(C)C)c1C | inconclusive: 29.1 µM [rising, single point] | 
COc1ccc(C(=O)NCCS(=O)(=O)N2CCN(C(=O)c3ccco3)CC2)cc1 | inconclusive: 0.184 µM [activator, partial curve, poor fit] | 
COc1cc(C2CC(=O)c3cnc(NC(=O)c4ccco4)nc3C2)cc(OC)c1OC (configuration not stated) |  | inconclusive: -71.3%
Cc1cc[n+](CC(=O)c2ccc(NC(=O)c3ccccc3)cc2)cc1 |  | inconclusive: 5.14%
O=C(NCc1ccccc1F)c1ccc(S(=O)(=O)N2CCCCCC2)cc1 | active: 18.4 µM | 
O=C(CC1(O)C(=O)Nc2cc(Cl)cc(Cl)c21)c1ccncc1 (configuration not stated) | inconclusive: 25.9 µM [falling, single point] | 
Cc1cc(C)n(-c2nc3ccccc3c(=O)n2OCC(=O)OCc2ccccc2)n1 | inconclusive: 3.26 µM [activator, partial curve] | 
Cc1ccn(S(=O)(=O)c2ccc3oc(=O)ccc3c2)n1 |  | inconclusive: -24.5%
COc1ccc(S(=O)(=O)N2CCC(C(=O)NCc3cccnc3)CC2)cc1OC |  | inconclusive: -12.2%
CC1CN(/C(=N\S(=O)(=O)c2ccccc2)c2ccccc2)CC(C)O1 (configuration not stated) |  | inconclusive: -4.49%
Cc1ccc(N=C2NC(=O)S/C2=C\c2ccco2)cc1 | inconclusive: 18.4 µM [falling, single point] | 
Nc1ccccc1C(=O)NNc1ncc(C(F)(F)F)cc1Cl |  | inconclusive: -19.8%
COc1ccc(OC)c(C(c2nnnn2Cc2ccccc2)N2CCC(C(N)=O)CC2)c1 (configuration not stated) | inconclusive: 4.61 µM [activator, single point] | 
COc1ccc(N2CCN(C(=O)CNC(=O)c3ccccc3Cl)CC2)cc1 |  | inconclusive: 391%
COCc1nnc(NC(=O)c2ccco2)s1 | inconclusive: 11.6 µM [falling, partial curve, poor fit] | 
COC(=O)c1ccc(=O)n(-c2ccc(OC)cc2)c1 |  | inconclusive: -3.07%
O=C(c1c[nH]c2ccccc12)N1CCN(Cc2ccccc2)CC1 |  | inconclusive: -2.72%
O=S1(=O)CCOC[C@H](CC2CCCCC2)N1Cc1cccc(C(F)(F)F)c1 |  | inconclusive: -50.9%
Cc1ccc(Cn2nnc3c(=O)n(CC(=O)NCC4CCCO4)cnc32)cc1 (configuration not stated) |  | inconclusive: 54.1% [activator]

Structure (SMILES) | Potency | lipid storage change, negative = inhibition
Cc1ccc2nc(SCC(=O)Nc3oc(C)c4c(C)n[nH]c(=O)c34)[nH]c2c1 | inconclusive: 3.66 µM [rising, full curve] | 
Cn1c(=O)oc2cc(S(=O)(=O)Nc3ccccc3)ccc21 |  | inactive: -3.68% [at 9.22 µM]
Cc1cccnc1NC(=O)Nc1ccccc1 | inconclusive: 0.0517 µM [activator, full curve] | 
Cc1nc2ccc(NC(=O)c3ccc(Br)o3)cc2s1 |  | inconclusive: -4.67%
Cc1ccc(CC(=O)NCc2cccnc2)cc1 |  | inconclusive: 3.34%
CC(=O)N1C(=O)C2(C(C#N)=C(N)Oc3n[nH]c(-c4ccccn4)c32)c2ccccc21 (configuration not stated) | inconclusive: 1.16 µM [activator, full curve] | 
CC1=C(C(=O)OCC2CCCO2)C(c2ccc(Cl)c(Cl)c2)NC(=O)N1 (configuration not stated) |  | inactive: 0.886%
Cc1c(NC(=O)c2c(F)c(F)c(F)c(F)c2F)c(=O)n(-c2ccccc2)n1C |  | inconclusive: -5.31%
CC(C)NC(=O)COC(=O)/C=C/c1ccc(F)cc1 | inconclusive: 0.0731 µM [falling, full curve, poor fit] | 
CCc1noc(C)c1C(=O)OC(C)C(=O)NCc1ccc(OC)cc1 (configuration not stated) | inconclusive: 29.1 µM [falling, single point] | 
CN1C(=O)C(C)(C)c2cc(S(=O)(=O)N3CCN(c4ccccc4)CC3)ccc21 | inconclusive: 14.6 µM [falling, partial curve] | 
COc1ccccc1Nc1nc2c(C)cccc2cc1C#N |  | inconclusive: 11.2%
Cc1cccc2sc(NC(=O)CCNC(=O)c3ccco3)nc12 |  | inconclusive
CSCCC(NC(=O)c1ccc([N+](=O)[O-])cc1Cl)C(=O)OCC(=O)NC(=O)CN1CCCC1=O (configuration not stated) |  | inconclusive: -11.1%
N#Cc1nc(Cc2ccccc2)oc1NCCc1ccccc1 | inconclusive: 8.2 µM [activator, single point] | 
O=C(NCc1cc(F)ccc1F)C1CCC(=O)N(C2CCCCCC2)C1 (configuration not stated) |  | inconclusive: 94.4%
Cc1ccc(-c2nn(-c3ccccc3)cc2/C=N/n2c(-c3cccs3)n[nH]c2=S)cc1 |  | inconclusive: -4.66%
Cc1oncc1C(=O)Nc1ccc(C(F)(F)F)cc1 | inconclusive: 32.6 µM [activator, single point] | 
COc1ccc(NC(=O)c2ccc(NC(=O)c3cccs3)cc2)cc1 |  | inconclusive: 2.68%
CCOC(=O)NCCc1ccc(OC)cc1 |  | inconclusive: -9.79%
O=C(Oc1c(-c2ccccc2Cl)oc2ccccc2c1=O)c1ccc(Cl)cc1 |  | inconclusive: 14.6%
COc1ccc(-c2nnn(CC(=O)OC3CCCCC3)n2)cc1OC |  | inconclusive: -1.79%
Cc1cc(NC(=O)c2ccc(F)cc2)ccc1NC(=O)c1ccco1 |  | inconclusive: -11.6%
COc1ccc(C(Cl)=C(c2ccc(OC)cc2)c2ccc(OC)cc2)cc1 | inconclusive: 23.1 µM [activator, single point] | 
Cc1oc(-c2cccc(Cl)c2)nc1CSCC(=O)O |  | inconclusive: 37.3%

2 of the compounds above, as tab-separated lines.
Structure (SMILES)	Potency	lipid storage change, negative = inhibition
Cn1c(=O)oc2cc(S(=O)(=O)Nc3ccccc3)ccc21		inactive: -3.68% [at 9.22 µM]
CC(=O)N1C(=O)C2(C(C#N)=C(N)Oc3n[nH]c(-c4ccccn4)c32)c2ccccc21 (configuration not stated)	inconclusive: 1.16 µM [activator, full curve]	

Reference: PubChem BioAssay AID2685 (National Center for Advancing Translational Sciences (NCATS), 2010)
